Experimental findings from publication PMC7819943, “Rice protein-binding microarrays: a tool to detect cis-acting elements near promoter regions in rice” are described below.

The list shows a part of the results.

The assay deals with T1, OsSMF1 (Oryza sativa, UniProt Q6ZLB0 1-436).
T1 sequence: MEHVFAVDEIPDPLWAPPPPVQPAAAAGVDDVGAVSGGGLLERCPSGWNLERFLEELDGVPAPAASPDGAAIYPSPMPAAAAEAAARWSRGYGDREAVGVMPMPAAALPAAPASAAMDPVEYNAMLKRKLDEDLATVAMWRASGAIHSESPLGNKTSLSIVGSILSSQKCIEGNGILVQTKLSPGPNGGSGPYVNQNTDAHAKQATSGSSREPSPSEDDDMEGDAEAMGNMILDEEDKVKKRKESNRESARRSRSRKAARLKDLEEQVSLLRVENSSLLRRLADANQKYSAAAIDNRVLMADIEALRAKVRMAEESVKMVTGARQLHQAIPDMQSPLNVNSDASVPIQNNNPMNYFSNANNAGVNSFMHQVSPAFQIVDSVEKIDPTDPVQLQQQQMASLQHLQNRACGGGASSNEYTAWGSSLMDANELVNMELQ
Put plainly: protein-binding microarray (RPBM); PBS, 2% BSA, 51.3 ng/ul salmon testes DNA, 50 uM zinc acetate, 200 nM TF, 25 C, 1 h; high values mean tight binding. Conditions: protein: recombinant; tags: N-terminal polyhistidine and DsRed monomer fusion (pET32a); chain copies: 2; label: CyDye5-dUTP incorporated in the synthesized complementary strand; 3' TTTTT single-stranded linker to array surface; dsDNA, one strand shown. The gist of the method:
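Per-feature fluorescence intensity (arbitrary units), read on an Axon 4000B scanner, is the binding signal. Transcription factors carrying an N-terminal polyhistidine tag and DsRed fusion were expressed in E. coli BL21-CodonPlus and purified on Ni–NTA. A custom Agilent array, made double-stranded by primer extension with Cy5-dUTP and blocked with 2% BSA, was incubated with 200 nM protein in PBS, 2% BSA, salmon testes DNA and 50 µM zinc acetate at 25 °C for 1 h and then washed.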
For “CTCGGTGTCGTCATCGTGTTTGGATCTCCTATGACGTTTTCGGAGTCACCTAGTGCAG”, the binding signal was 4490 fluorescence intensity (a.u.). Then “CCGGTCTGACTGCTGCACGAGCAACCCGACTCGATGGATCCGGAGTCACCTAGTGCAG”, with 3230 fluorescence intensity (a.u.); and “CGCCCGTACGCCACCGATGCGCCCACCGCCGTCGCCCACACGGAGTCACCTAGTGCAG”, with 4140 fluorescence intensity (a.u.). Consider “GAGGAGGAGGAGGAGGAGGAGTCACCTGCGACGCCGTCGCCGGAGTCACCTAGTGCAG”, for which the binding signal is 4400 fluorescence intensity (a.u.). In the case of “CTAGAGCTCTACTGTCATCAACTACTCGATCGATCGAACCCGGAGTCACCTAGTGCAG”, the binding signal was 4360 fluorescence intensity (a.u.). In the case of “TTATACATTGATGTAACGCGTTAATACTGATAAATATGCACGGAGTCACCTAGTGCAG” it was 14300 fluorescence intensity (a.u.); in that of “CAACCCTACCTCGCTTCTCTCACCAGTCACCACCACTTGGCGGAGTCACCTAGTGCAG”, 4230 fluorescence intensity (a.u.); in that of “GAGCTCGGCACCAGAGATGAACGCCGTGTGGCGTGGCGACCGGAGTCACCTAGTGCAG”, 3710 fluorescence intensity (a.u.). For the sequence “TGCGTTCTGGTTCGTCCACCCTGTGCAAGCTTGTGTCATGCGGAGTCACCTAGTGCAG”, the binding signal was 3330 fluorescence intensity (a.u.). Then “AGCGCGGTCCAGCTGGACCTAGCAGGTGGGCAAAACAGTACGGAGTCACCTAGTGCAG”, with 3620 fluorescence intensity (a.u.); and “CTGGGCCTCCCCACCGACACGCTGGGCTGGCCCGGCACGACGGAGTCACCTAGTGCAG”, with 28200 fluorescence intensity (a.u.).

Regarding “AGGGCCCCACACGTCAGTGACTTATTCGTCGGATAAGGACCGGAGTCACCTAGTGCAG”, the binding signal was 5800 fluorescence intensity (a.u.). In the case of “GGGCCCCGCAGGCGCAGGCGCAGCGGTACGCCGTCGTCGGCGGAGTCACCTAGTGCAG” it was 54200 fluorescence intensity (a.u.); in that of “CCAATGCACTTTAAGCCTCATCTGAATCTTTTGATAGGCCCGGAGTCACCTAGTGCAG”, 25700 fluorescence intensity (a.u.); in that of “GTGGTAGAAGCTATATTGTCACTGTGGTCGTCATTGTAGTCGGAGTCACCTAGTGCAG”, 3650 fluorescence intensity (a.u.). Regarding “CGTGGCAATATTGTTATTGCACATGACTATATTATGGTCACGGAGTCACCTAGTGCAG”, the binding signal is 4390 fluorescence intensity (a.u.). On to “AAGTTATCACGATGTTCACGATGCCGGAGGATATCATTTCCGGAGTCACCTAGTGCAG”, for which the binding signal was 3140 fluorescence intensity (a.u.). In the case of “GTGGGGAGGGGAGGTGGGTCGCCGAAAGCTTGGCTGAGATCGGAGTCACCTAGTGCAG”, the binding signal was 7750 fluorescence intensity (a.u.). Consider “GTGGCTGACAGTGCTGGTTGCTGGTTCCCTTCTTCCTCCGCGGAGTCACCTAGTGCAG”, for which the binding signal was 4170 fluorescence intensity (a.u.). Consider “GCCGGCCATGCCAGCCGCGCGATCGACGTGCCACTGAACGCGGAGTCACCTAGTGCAG”, for which the binding signal is 4420 fluorescence intensity (a.u.). With “AAGCCTCGTAGGTGTTCGTCCAGCCGCGACACGACACGACCGGAGTCACCTAGTGCAG”, the binding signal is 3300 fluorescence intensity (a.u.). “GATCGAGTCCAGCTGACGCACTCAAACAGACGAAATCAACCGGAGTCACCTAGTGCAG”: the binding signal is 3580 fluorescence intensity (a.u.). As to “GGGGTGAAGAAGAAGGGTAAGGTGGCTGACATATGGGACCCGGAGTCACCTAGTGCAG”, the binding signal is 3410 fluorescence intensity (a.u.). Then “GTGTGCTTTCCTGCTGCGTGTGGTGCTATTATTGCTAGTCCGGAGTCACCTAGTGCAG”, with 3140 fluorescence intensity (a.u.); and “CGGGTGGTTTGCATCAGAGGCCACGTCGGACTACACGATCCGGAGTCACCTAGTGCAG”, with 11300 fluorescence intensity (a.u.). In the case of “TACGCCCACGGCCCACCGACACGTGGGCCCCACGACCCAGCGGAGTCACCTAGTGCAG”, the binding signal was 9700 fluorescence intensity (a.u.).

Take “CCTCTCCTCGTCCGCCGGCGATGCGCCGGCGCCGGCGCAGCGGAGTCACCTAGTGCAG”: the binding signal is 3200 fluorescence intensity (a.u.).

For “TCATTTATCTTTCTTCCATGTAAGCAAATTTGTCTAGGTGCGGAGTCACCTAGTGCAG”, the binding signal was 3280 fluorescence intensity (a.u.).

“CTCTTCCATTTGTTCCATTGTCATGCTTGCGTAATCTCAGCGGAGTCACCTAGTGCAG”: the binding signal is 3140 fluorescence intensity (a.u.).

For the sequence “AAGTCGTTTGTACGATGGCATTTCTTAGAACTCATATTTGCGGAGTCACCTAGTGCAG”, the binding signal is 4970 fluorescence intensity (a.u.). In the case of “TTCACCTTGTGTTGCCACGTAGGCAAAATTGACAAAGAGACGGAGTCACCTAGTGCAG” it was 7720 fluorescence intensity (a.u.); in that of “ACAAAATTTATTTCCAGGTGGCGTCTCCTCATTGGCCAGCCGGAGTCACCTAGTGCAG”, 4370 fluorescence intensity (a.u.). Then “CTGTCAACAATCATCGAATCATAGCGCCAACACACCCACCCGGAGTCACCTAGTGCAG”, with 3360 fluorescence intensity (a.u.); and “AAGGATTAACAAACCAGCTATGCTCTCATTGGATGTACTACGGAGTCACCTAGTGCAG”, with 3480 fluorescence intensity (a.u.); and “ACCTGCCGCCGCTGCCGCATCCGCCGCCACCACGACCAACCGGAGTCACCTAGTGCAG”, with 3860 fluorescence intensity (a.u.).

In the case of “CCCAAATCCCACTTCCCACAGCCAAACTTTCATACAAACGCGGAGTCACCTAGTGCAG”, the binding signal was 21200 fluorescence intensity (a.u.). Consider “ATTCCCTCGTTTTGTGTATGTCGTTCAAAGAGTCATCAAACGGAGTCACCTAGTGCAG”, for which the binding signal is 3540 fluorescence intensity (a.u.). Turning to “TTCTTCGGTTATTATACTGTAATAAAATGTCAAGCTGGCGCGGAGTCACCTAGTGCAG”, the binding signal is 4000 fluorescence intensity (a.u.). For the sequence “TCACCAAAATCAACATGAACTGATCAGTTCTTGTCCAGTACGGAGTCACCTAGTGCAG”, the binding signal was 5230 fluorescence intensity (a.u.). For the sequence “GCGGGCAGGCGGCGCCAGCCGTGACGCGGGTGGTCCGGGTCGGAGTCACCTAGTGCAG”, the binding signal was 4420 fluorescence intensity (a.u.). As for “CCTCGATTCCTCGTGATCTCGGGATCGTCCGCGTGGATATCGGAGTCACCTAGTGCAG”, the binding signal was 3330 fluorescence intensity (a.u.). Then “CGGACGGCGAGAAACGCATTGTCACTGTCACATCGTCGTCCGGAGTCACCTAGTGCAG”, with 3270 fluorescence intensity (a.u.).
